# Screening data, single-dose tests

Each number is a percent effect as filed. How 0% and 100% were set is not recorded. Most values in the screen are low, and negative values occur. This is an unselected part of the compounds tested.

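Assay of Toxoplasma gondii numbers, read through their beta-galactosidase reporter with a colour substrate. Tested at 50 µM. The record gives no direction; the compounds picked for IC50 retests had high values, so higher reads as fewer parasites. Size under these conditions: about 18,000 compounds, about 170 of them at 50% or above in at least one test.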

| # | SMILES | percent effect |
|---|---|---|
| 1 | `CN(C)CC(=O)Nc1cccc(S(N)(=O)=O)c1` | -8.318% |
| 2 | `CCN1CCN(C(=O)C2CCCOC2)c2ccccc21` (stereo not given) | 1.701% |
| 3 | `CCN(CC)c1ccc(C(=O)Nc2cc[nH]n2)cn1` | -1.179% |
| 4 | `CCS(=O)(=O)CCNC(=O)NCCC(C)(C)C` | -26.29% |
| 5 | `Cc1occc1C(=O)N1CCN(c2nccs2)CC1` | -28.68% |
| 6 | `O=C(NCCNc1ncccn1)c1cc(Cl)ccn1` | 20.56% |
| 7 | `CC(C)(C)CC(=O)NCC(=O)N1CCOC(C)(C)C1` | -4.503% |
| 8 | `CCC(CNC(=O)Nc1cc(C)nn1C)N1CCCC1` (stereo not given) | -4.617% |
| 9 | `Cc1ccccc1-c1[nH][nH]c(=O)c1CCN` | -8.791% |
| 10 | `Cc1ccc(F)cc1C(=O)N1CCNCC1` | -6.135% |
| 11 | `CN1CCC(N(C)C(=O)C2CC2)CC1` | 8.785% |
| 12 | `COc1ccc(-c2noc(C(C)n3ccnc3)n2)cn1` (stereo not given) | -11.37% |
| 13 | `CC(C)CC(=O)Nc1cccc(C(=O)N(C)C)c1` | -2.592% |
| 14 | `CC(C)(CC(N)=O)NCc1nc(-c2ccccc2)no1` | -10.29% |
| 15 | `CN1CCCN(C(=O)c2ccc(C#N)cc2)CC1` | -7.834% |
| 16 | `CC(=O)NCCN(C)Cc1ccccc1` | -2.1% |
| 17 | `CCn1nc(CC(C)C)cc1C(=O)N1CCC(N)C1` (stereo not given) | -11.21% |
| 18 | `CCCN(C(=O)c1ccc(Br)cn1)C1CCNC1` (stereo not given) | 8.651% |
| 19 | `Cc1csc(C(=O)N2CC[C@H](O)C2)c1I` | -7.053% |
| 20 | `COC(=O)c1cccc(NC(=O)c2n[nH]cc2I)c1` | -34.08% |
| 21 | `O=C(NCCC(F)(F)F)NC1CCC2(CC1)OCCO2` | 1.208% |
| 22 | `OC1CCNC12CCCC2` (stereo not given) | -9.236% |
| 23 | `NCc1cccc(OCCN2CCOCC2)c1` | 6.619% |
| 24 | `Cc1ccc(C2CN(CCNC(C)C)CCO2)o1` (stereo not given) | -9.467% |
| 25 | `OCCCC(Nc1ccccn1)c1ccccc1` (stereo not given) | 1.961% |
| 26 | `CC(C)(C)OC(=O)N1CCC(n2cc(N)cn2)CC1` | -15.49% |
| 27 | `CCOc1ncccc1C(=O)N1CCOCC(CO)C1` (stereo not given) | -1.115% |
| 28 | `O=C1CCCC(c2ccccc2)N1` (stereo not given) | 5.096% |
| 29 | `CCC1c2ccsc2CCN1CC(=O)NC` (stereo not given) | 3.959% |
| 30 | `CC(=O)N1CCC(NCc2ccc3c(c2)OCO3)CC1` | 3.408% |
| 31 | `CN(C)C1CCN(CC(=O)NCCc2ccnn2C)C1` (stereo not given) | -5.636% |
| 32 | `CC(=O)N1CCN(c2ccc3nnnn3n2)CC1` | 3.052% |
| 33 | `Cc1ccnc(NS(=O)(=O)c2cccs2)c1` | -18.4% |
| 34 | `N[C@@H]1C[C@H]1c1ccccc1F` | -12.23% |
| 35 | `CN(Cc1ccccc1)C(=O)c1ccn(C)c(=O)c1` | 13.04% |
| 36 | `N#Cc1ccc2c(c1)CCCC2N` (stereo not given) | 4.54% |
| 37 | `CNCC(C)(CO)CO` | -6.046% |
| 38 | `CCn1nnc2c(cnn2-c2ccccc2)c1=O` | 2.804% |
| 39 | `NCC(O)c1ccc(Cl)cc1Cl` (stereo not given) | -19.27% |
| 40 | `O=C(c1ccc(CN2CCCCC2)cc1)N1CC(O)C1` | -1.426% |
| 41 | `Cc1ccc(NC(=O)C(C)N2CCCN(C)CC2)cc1` (stereo not given) | -13.16% |
| 42 | `O=C(Nc1ncco1)NC1CCN(c2ccccn2)C1` (stereo not given) | -21.32% |
| 43 | `CC(C)(O)CNC1CCOCC1` | 33.28% |
| 44 | `O=C(COc1ccccc1)NCc1c[nH]nn1` | 12.07% |
| 45 | `CNCc1c(C)cc(C)nc1OC` | -0.8158% |
| 46 | `CCc1ncc(C(=O)NCCCNc2ccncc2)s1` | -15.88% |
| 47 | `CCCN(CCC(=O)N(C)C)Cc1nccn1C` | 0.8438% |

4 of the entries, repeated:

| SMILES | percent effect |
|---|---|
| `CN(C)CC(=O)Nc1cccc(S(N)(=O)=O)c1` | -8.318% |
| `CCS(=O)(=O)CCNC(=O)NCCC(C)(C)C` | -26.29% |
| `CNCc1c(C)cc(C)nc1OC` | -0.8158% |
| `CNCC(C)(CO)CO` | -6.046% |

Data taken from ChEMBL document CHEMBL3988442, “University of Dundee, Small-Polar-MMV Screening Library” (2021).